Measurements from PubChem BioAssay AID248 (DTP/NCI, 2004).
The list is a part of this screen's results and no random one: it is rich in T/C values a quarter to a half above the control, in often repeated tests (any T/C) and in doses without a T/C. Other doses and runs of a compound stand elsewhere. T/C is the treated group as % of the vehicle group. Some entries give survivors of the animals treated and no T/C: the source files T/C as zero there, which appears to mark a toxic dose or a test without result, not a measured value. Some doses without a T/C left all or most animals alive at the check, yet need not have been tolerated: survival well below the control is almost never listed, so the zero probably covers shortened survival too. Survivors were counted at the toxicity check, usually on the fifth day, unless a day is given; later deaths do not show. Schedule codes are those of the source, read here as Q, the interval in days (D) or hours (H), X, the number of doses. Where survival is the endpoint, the PubChem record calls one and a half times the control and up active, and a quarter to a half above the control has no call in these data; cut-offs in other NCI protocols can differ. Some entries were tested several times; the results are listed from low to high. Some T/C values carry the count of animals alive at the toxicity check (mostly the fifth day); without a count, all were alive then.

Tested on: L1210 leukemia ip in BDF1 mice, survival T/C
Experiment: NCI In Vivo Anticancer Drug Screen. Data for tumor model L1210 Leukemia (intraperitoneal) in B6D2F1 (BDF1) mice
Conditions: higher T/C = longer survival

## O=C1C=CN(C2OC(CO)C(O)C2O)C(=O)C1 (configuration not stated)
T/C endpoint: mean survival time, dose: 225.0 mg/kg/injection, schedule: Q01DX009 (ip), vehicle: saline, evaluated on day 60
  T/C: 132 % of control [9 of 10 alive]
T/C endpoint: mean survival time, dose: 250.0 mg/kg/injection, schedule: Q01DX005 (ip), vehicle: other
  T/C: 130 % of control
T/C endpoint: mean survival time, dose: 300.0 mg/kg/injection, schedule: Q01DX009 (ip), vehicle: saline
  T/C: 135 and 140 % of control
T/C endpoint: mean survival time, dose: 400.0 mg/kg/injection, schedule: Q01DX009 (ip), vehicle: saline
  T/C: 139 % of control
T/C endpoint: median survival time, dose: 6.25 mg/kg/injection, schedule: Q01DX009 (ip), vehicle: saline
  T/C: 127 % of control
T/C endpoint: median survival time, dose: 8.0 mg/kg/injection, schedule: Q03HX024 (ip), vehicle: saline
  T/C: 127 % of control
T/C endpoint: median survival time, dose: 9.38 mg/kg/injection, schedule: Q01DX009 (ip), vehicle: saline, evaluated on day 5
  T/C: 132 % of control
T/C endpoint: median survival time, dose: 9.38 mg/kg/injection, schedule: Q01DX009 (ip), vehicle: saline, evaluated on day 30
  T/C: 132 % of control
T/C endpoint: median survival time, dose: 16.0 mg/kg/injection, schedule: Q03HX024 (ip), vehicle: saline
  T/C: 128 % of control
T/C endpoint: median survival time, dose: 17.0 mg/kg/injection, schedule: Q03HX024 (ip), vehicle: saline
  T/C: 138 % of control
T/C endpoint: median survival time, dose: 18.75 mg/kg/injection, schedule: Q01DX009 (ip), vehicle: saline, evaluated on day 5
  T/C: 135 % of control
T/C endpoint: median survival time, dose: 18.75 mg/kg/injection, schedule: Q01DX009 (ip), vehicle: saline, evaluated on day 30
  T/C: 135 % of control
T/C endpoint: median survival time, dose: 24.0 mg/kg/injection, schedule: Q01DX009 (ip), vehicle: saline
  T/C: 133 % of control
T/C endpoint: median survival time, dose: 25.0 mg/kg/injection, schedule: Q01DX009 (ip), vehicle: saline, evaluated on day 54
  T/C: 127 % of control
T/C endpoint: median survival time, dose: 25.0 mg/kg/injection, schedule: Q01DX009 (ip), vehicle: saline, evaluated on day 60
  T/C: 133 % of control [7 of 8 alive]
T/C endpoint: median survival time, dose: 32.0 mg/kg/injection, schedule: Q01DX009 (ip), vehicle: saline
  T/C: 126 % of control
T/C endpoint: median survival time, dose: 32.0 mg/kg/injection, schedule: Q03HX024 (ip), vehicle: saline
  T/C: 132 % of control
T/C endpoint: median survival time, dose: 37.0 mg/kg/injection, schedule: Q01DX009 (ip), vehicle: saline
  T/C: 133 % of control
T/C endpoint: median survival time, dose: 37.5 mg/kg/injection, schedule: Q01DX009 (ip), vehicle: saline, evaluated on day 5
  T/C: 132 % of control
T/C endpoint: median survival time, dose: 37.5 mg/kg/injection, schedule: Q01DX009 (ip), vehicle: saline, evaluated on day 30
  T/C: 132 % of control
T/C endpoint: median survival time, dose: 39.0 mg/kg/injection, schedule: Q03HX024 (ip), vehicle: saline
  T/C: 144 % of control
T/C endpoint: median survival time, dose: 48.0 mg/kg/injection, schedule: Q01DX009 (oral), vehicle: saline
  T/C: 144 % of control
T/C endpoint: median survival time, dose: 50.0 mg/kg/injection, schedule: Q01DX009 (ip), vehicle: saline, evaluated on day 54
  T/C: 133 % of control
T/C endpoint: median survival time, dose: 50.0 mg/kg/injection, schedule: Q01DX009 (ip), vehicle: saline, evaluated on day 60
  T/C: 138 % of control
T/C endpoint: median survival time, dose: 55.0 mg/kg/injection, schedule: Q01DX009 (ip), vehicle: saline
  T/C: 144 % of control
T/C endpoint: median survival time, dose: 58.0 mg/kg/injection, schedule: Q03HX024 (ip), vehicle: saline
  T/C: 144 % of control
T/C endpoint: median survival time, dose: 64.0 mg/kg/injection, schedule: Q01DX009 (ip), vehicle: saline
  T/C: 128 % of control
T/C endpoint: median survival time, dose: 64.0 mg/kg/injection, schedule: Q01DX009 (oral), vehicle: saline
  T/C: 132 and 135 % of control
T/C endpoint: median survival time, dose: 64.0 mg/kg/injection, schedule: Q03HX024 (ip), vehicle: saline
  T/C: 135 % of control
T/C endpoint: median survival time, dose: 75.0 mg/kg/injection, schedule: Q01DX009 (ip), vehicle: saline, evaluated on day 5
  T/C: 135 % of control
T/C endpoint: median survival time, dose: 75.0 mg/kg/injection, schedule: Q01DX009 (ip), vehicle: saline, evaluated on day 30
  T/C: 135 % of control [7 of 8 alive]
T/C endpoint: median survival time, dose: 82.0 mg/kg/injection, schedule: Q01DX009 (ip), vehicle: saline
  T/C: 144 % of control
T/C endpoint: median survival time, dose: 88.0 mg/kg/injection, schedule: Q03HX024 (ip), vehicle: saline
  T/C: 144 % of control
T/C endpoint: median survival time, dose: 100.0 mg/kg/injection, schedule: Q01DX009 (ip), vehicle: saline, evaluated on day 54
  T/C: 144 % of control
T/C endpoint: median survival time, dose: 100.0 mg/kg/injection, schedule: Q01DX009 (ip), vehicle: saline, evaluated on day 60
  T/C: 144 % of control
T/C endpoint: median survival time, dose: 124.0 mg/kg/injection, schedule: Q01DX009 (ip), vehicle: saline
  T/C: 144 % of control
T/C endpoint: median survival time, dose: 128.0 mg/kg/injection, schedule: Q01DX009 (oral), vehicle: saline
  T/C: 135 % of control
T/C endpoint: median survival time, dose: 128.0 mg/kg/injection, schedule: Q01DX009 (sc), vehicle: saline
  T/C: 134 % of control
T/C endpoint: median survival time, dose: 128.0 mg/kg/injection, schedule: Q03HX024 (ip), vehicle: saline
  T/C: 134 % of control
T/C endpoint: median survival time, dose: 150.0 mg/kg/injection, schedule: Q01DX009 (ip), vehicle: saline, evaluated on day 5
  T/C: 145 % of control
T/C endpoint: median survival time, dose: 150.0 mg/kg/injection, schedule: Q01DX009 (ip), vehicle: saline, evaluated on day 30
  T/C: 145 % of control
T/C endpoint: median survival time, dose: 200.0 mg/kg/injection, schedule: Q01DX009 (ip), vehicle: saline, evaluated on day 54
  T/C: 144 % of control
T/C endpoint: median survival time, dose: 200.0 mg/kg/injection, schedule: Q01DX009 (ip), vehicle: saline, evaluated on day 60
  T/C: 144 % of control
T/C endpoint: median survival time, dose: 256.0 mg/kg/injection, schedule: Q01DX009 (sc), vehicle: saline
  T/C: 133 % of control
T/C endpoint: median survival time, dose: 300.0 mg/kg/injection, schedule: Q01DX009 (ip), vehicle: saline, evaluated on day 5
  T/C: 148 % of control
T/C endpoint: median survival time, dose: 300.0 mg/kg/injection, schedule: Q01DX009 (ip), vehicle: saline, evaluated on day 30
  T/C: 148 % of control
T/C endpoint: median survival time, dose: 390.0 mg/kg/injection, schedule: Q04DX003 (ip), vehicle: saline
  T/C: 133 % of control
T/C endpoint: median survival time, dose: 400.0 mg/kg/injection, schedule: Q01DX009 (ip), vehicle: saline
  T/C: 144 % of control
T/C endpoint: median survival time, dose: 512.0 mg/kg/injection, schedule: Q01DX009 (ip), vehicle: saline
  T/C: 132 % of control
T/C endpoint: median survival time, dose: 512.0 mg/kg/injection, schedule: Q01DX009 (sc), vehicle: saline
  T/C: 131 % of control
T/C endpoint: median survival time, dose: 512.0 mg/kg/injection, schedule: Q04DX003 (oral), vehicle: saline
  T/C: 132 % of control
T/C endpoint: median survival time, dose: 880.0 mg/kg/injection, schedule: Q04DX003 (ip), vehicle: saline
  T/C: 127 % of control
T/C endpoint: median survival time, dose: 1024.0 mg/kg/injection, schedule: Q01DX009 (oral), vehicle: saline
  survivor count: 9 of 10
T/C endpoint: median survival time, dose: 1024.0 mg/kg/injection, schedule: Q04DX003 (ip), vehicle: saline
  T/C: 132 % of control
T/C endpoint: median survival time, dose: 1024.0 mg/kg/injection, schedule: Q04DX003 (oral), vehicle: saline
  T/C: 129 and 130 % of control
T/C endpoint: median survival time, dose: 1024.0 mg/kg/injection, schedule: Q04DX003 (sc), vehicle: saline
  T/C: 125 % of control
T/C endpoint: median survival time, dose: 2048.0 mg/kg/injection, schedule: Q04DX003 (oral), vehicle: saline
  T/C: 131 and 135 % of control
